Measured values as given in paper PMC2940876, “Familial hemiplegic migraine CaV2.1 channel mutation R192Q enhances ATP-gated P2X3 receptor activity of mouse sensory ganglion neurons mediating trigeminal pain” (2010).
Results are given in words; binding and its absence hold for the method and conditions named. In cells and extracts the contact can be indirect. Some entries that bind do so weakly or less than the wild type.

Target: T1, P2X3 receptor (mouse (endogenous in trigeminal ganglion neurons)) (UniProt Q3UR32)
T1 sequence: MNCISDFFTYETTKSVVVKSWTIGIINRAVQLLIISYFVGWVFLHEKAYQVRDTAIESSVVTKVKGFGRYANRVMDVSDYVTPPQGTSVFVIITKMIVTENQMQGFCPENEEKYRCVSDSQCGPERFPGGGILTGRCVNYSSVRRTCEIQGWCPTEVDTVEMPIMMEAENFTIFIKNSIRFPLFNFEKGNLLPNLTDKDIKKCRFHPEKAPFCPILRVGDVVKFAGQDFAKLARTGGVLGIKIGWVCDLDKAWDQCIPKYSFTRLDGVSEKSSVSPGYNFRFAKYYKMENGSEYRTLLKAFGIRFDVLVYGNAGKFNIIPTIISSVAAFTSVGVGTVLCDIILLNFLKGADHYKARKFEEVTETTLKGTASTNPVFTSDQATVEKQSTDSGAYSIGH
Test: co-IP; P2X3 receptors immunopurified from WT and CaV2.1 R192Q KI mouse trigeminal neurons, blotted with anti-Cdk5; extraction in TNE buffer (10 mM Tris-HCl pH 7.5, 150 mM NaCl, 2 mM EDTA, 100 mM NaF, 2% n-octyl beta-D-glucopyranoside, 1% NP40)

Substance: cyclin dependent kinase 5 (from UniProt P49615 1-292) (enzyme)
- binding: binds
